At least one compound was matched to its structure with a doubt left.
Experiments:
[1] = system: bulk Tregs from healthy donors spiked with 5% CD8+ cells; assay: Fold expansion of Treg cells at day 14, spiked healthy donor bulk Tregs; type: cell-based, human; conditions: 1+48h condition, compared to both 1 h and 48h conditions
[2] = system: bulk Tregs obtained from patient material (LTX-0008); assay: Fold expansion of all cells at day 14, patient bulk Tregs; type: cell-based, human; conditions: compared to no rapa (control)
[3] = system: Tregs from healthy volunteers and liver transplant patients; assay: GMP process: phenotype and transduction efficiency of day 14 product by FACS; type: cell-based, human; conditions: compared to no rapa condition
[4] = system: bulk Tregs from healthy donors spiked with 5% CD8+ cells; assay: % of cells expressing FOXP3 at day 14 by FACS, spiked healthy donor bulk Tregs; conditions: compared to no rapa (control)
[5] = system: bulk Tregs from healthy donors spiked with 5% CD8+ cells; assay: % of CD8+ cells at day 14 by FACS, expansion of spiked healthy donor bulk Tregs; conditions: compared to no rapa (control)

**Q.** With `CO[C@H]1C[C@@H]2CC[C@@H](C)[C@@](O)(O2)C(=O)C(=O)N2CCCC[C@H]2C(=O)O[C@H]([C@H](C)C[C@@H]2CC[C@@H](O)[C@H](OC)C2)CC(=O)[C@H](C)/C=C(\C)[C@@H](O)[C@@H](OC)C(=O)[C@H](C)C[C@H](C)/C=C/C=C/C=C/1C` [rapamycin] as the compound, how does the “fold expansion of Treg cells at day 14, normalised to no rapa (control)” value [1] read?
**A.** markedly improved fold expansion

**Q.** What about the “fold expansion of all cells at day 14” value ([2]; LTX-0008, 1+24 h condition) of the same compound?
**A.** improved fold expansion

**Q.** What about the “fold expansion of all cells at day 14” value ([2]; LTX-0008, 1+48h condition) of the same compound?
**A.** improved fold expansion

**Q.** What about the “% of FOXP3+ cells at day 14” value ([3]; rapa condition (100 nM, 1 hour pre-treatment + 2 days, then diluted 20× fold)) of the same compound?
**A.** greater

**Q.** What about the “% of CD8+ cells at day 14” value ([3]; rapa condition) of the same compound?
**A.** lower

**Q.** What about the “% of Helios+ cells at day 14” value ([3]; rapa condition) of the same compound?
**A.** greater

**Q.** What about the “transduction efficiency (% of RQR8+ cells) at day 14” value ([3]; rapa condition) of the same compound?
**A.** greater

**Q.** What about the “% of cells expressing FOXP3 at day 14” value ([4]; 1+24 h condition) of the same compound?
**A.** significantly increased

**Q.** What about the “% of cells expressing FOXP3 at day 14” value ([4]; 1+48h condition) of the same compound?
**A.** significantly increased

**Q.** What about the “% of cells expressing FOXP3 at day 14” value ([4]; 1 h condition) of the same compound?
**A.** did not significantly improve

**Q.** What about the “% of cells expressing FOXP3 at day 14” value ([4]; 24h condition) of the same compound?
**A.** did not significantly improve

**Q.** And the “% of cells expressing FOXP3 at day 14” value ([4]; 48h condition)?
**A.** significantly increased

**Q.** And the “% of CD8+ cells at day 14” value ([5]; 1+24 condition (100 nM rapamycin 1 h before activation + 24 h culture))?
**A.** significantly decreased

**Q.** What about the “% of CD8+ cells at day 14” value ([5]; 1+48 condition (100 nM rapamycin 1 h before activation + 48 h culture)) of the same compound?
**A.** significantly decreased

**Q.** And the “% of CD8+ cells at day 14” value ([5]; 1 h condition (100 nM rapamycin pre-treatment only))?
**A.** did not significantly reduce

**Q.** What about the “% of CD8+ cells at day 14” value ([5]; 24 h condition (100 nM rapamycin from activation for 24 h)) of the same compound?
**A.** did not significantly reduce

**Q.** What about the “% of CD8+ cells at day 14” value ([5]; 48 h condition (100 nM rapamycin from activation for 48 h)) of the same compound?
**A.** significantly decreased

— patent US20250250542A1, “CULTURE METHOD” (Quell Therapeutics Limited, priority 2023, published 2025)
